Test results published in the supplement of paper PMC10849652.
This is one part of the list.

Chains of the proteins cited; added tags and fusions are not shown. Lines headed by an entry give the natural chain unless they say otherwise; changes in a name come on top.
UniProt P22304: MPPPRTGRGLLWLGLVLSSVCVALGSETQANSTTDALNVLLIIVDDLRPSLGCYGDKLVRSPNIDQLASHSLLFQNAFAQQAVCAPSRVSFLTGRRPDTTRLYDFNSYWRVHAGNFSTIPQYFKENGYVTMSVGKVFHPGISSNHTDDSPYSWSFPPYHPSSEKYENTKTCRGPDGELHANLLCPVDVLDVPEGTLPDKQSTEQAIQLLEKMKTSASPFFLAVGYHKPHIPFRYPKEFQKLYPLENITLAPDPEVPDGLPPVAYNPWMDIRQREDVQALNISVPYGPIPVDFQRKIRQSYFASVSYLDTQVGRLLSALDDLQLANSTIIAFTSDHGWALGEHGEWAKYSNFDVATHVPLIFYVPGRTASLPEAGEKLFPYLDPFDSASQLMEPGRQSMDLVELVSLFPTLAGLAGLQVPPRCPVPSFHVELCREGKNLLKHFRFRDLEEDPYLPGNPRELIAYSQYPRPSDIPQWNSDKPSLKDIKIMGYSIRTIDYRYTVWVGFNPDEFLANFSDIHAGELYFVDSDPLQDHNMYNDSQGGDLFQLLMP
UniProt Q9NWB7: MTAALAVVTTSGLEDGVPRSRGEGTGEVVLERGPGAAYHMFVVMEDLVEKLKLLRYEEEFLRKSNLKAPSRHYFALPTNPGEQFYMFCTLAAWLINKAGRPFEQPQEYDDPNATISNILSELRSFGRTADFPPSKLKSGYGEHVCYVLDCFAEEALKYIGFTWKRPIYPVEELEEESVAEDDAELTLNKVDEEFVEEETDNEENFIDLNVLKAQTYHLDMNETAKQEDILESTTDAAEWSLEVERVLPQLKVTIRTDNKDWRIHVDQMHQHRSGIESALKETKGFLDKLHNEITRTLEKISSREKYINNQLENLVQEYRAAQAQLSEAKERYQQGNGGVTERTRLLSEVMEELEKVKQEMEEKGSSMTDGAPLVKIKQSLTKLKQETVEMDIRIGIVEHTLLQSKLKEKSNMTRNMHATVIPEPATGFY
UniProt Q96D96: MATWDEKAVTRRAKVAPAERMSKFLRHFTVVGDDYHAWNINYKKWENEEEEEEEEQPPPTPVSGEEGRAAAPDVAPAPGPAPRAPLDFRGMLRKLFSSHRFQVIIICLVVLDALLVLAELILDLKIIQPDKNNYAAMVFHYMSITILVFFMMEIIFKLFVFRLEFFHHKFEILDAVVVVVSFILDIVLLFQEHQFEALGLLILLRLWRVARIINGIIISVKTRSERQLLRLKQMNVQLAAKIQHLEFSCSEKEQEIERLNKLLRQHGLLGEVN
UniProt A2RU49: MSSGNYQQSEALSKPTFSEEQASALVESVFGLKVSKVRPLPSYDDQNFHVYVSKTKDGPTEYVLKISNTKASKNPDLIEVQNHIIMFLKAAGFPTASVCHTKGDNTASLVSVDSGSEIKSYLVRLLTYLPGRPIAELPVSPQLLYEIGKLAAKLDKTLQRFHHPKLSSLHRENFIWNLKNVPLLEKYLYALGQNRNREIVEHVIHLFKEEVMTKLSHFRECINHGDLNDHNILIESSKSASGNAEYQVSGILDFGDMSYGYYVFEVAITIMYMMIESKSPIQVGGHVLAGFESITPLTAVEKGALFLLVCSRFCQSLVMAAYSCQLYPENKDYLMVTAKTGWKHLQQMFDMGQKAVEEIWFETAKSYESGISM
UniProt P22692: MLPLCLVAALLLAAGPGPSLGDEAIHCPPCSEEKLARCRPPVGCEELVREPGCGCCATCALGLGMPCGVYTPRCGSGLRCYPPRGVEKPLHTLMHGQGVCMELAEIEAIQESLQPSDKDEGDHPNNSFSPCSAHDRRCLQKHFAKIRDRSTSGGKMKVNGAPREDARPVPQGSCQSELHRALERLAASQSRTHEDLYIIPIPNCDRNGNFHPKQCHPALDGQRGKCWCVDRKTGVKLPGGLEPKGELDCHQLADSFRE
IGKV3D-7, A0A0C4DH55, UniProt A0A0C4DH55, whole entry, looked up: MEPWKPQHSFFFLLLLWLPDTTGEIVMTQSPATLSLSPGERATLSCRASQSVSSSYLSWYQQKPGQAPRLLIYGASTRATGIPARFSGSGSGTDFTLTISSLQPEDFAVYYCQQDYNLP
UniProt P38935: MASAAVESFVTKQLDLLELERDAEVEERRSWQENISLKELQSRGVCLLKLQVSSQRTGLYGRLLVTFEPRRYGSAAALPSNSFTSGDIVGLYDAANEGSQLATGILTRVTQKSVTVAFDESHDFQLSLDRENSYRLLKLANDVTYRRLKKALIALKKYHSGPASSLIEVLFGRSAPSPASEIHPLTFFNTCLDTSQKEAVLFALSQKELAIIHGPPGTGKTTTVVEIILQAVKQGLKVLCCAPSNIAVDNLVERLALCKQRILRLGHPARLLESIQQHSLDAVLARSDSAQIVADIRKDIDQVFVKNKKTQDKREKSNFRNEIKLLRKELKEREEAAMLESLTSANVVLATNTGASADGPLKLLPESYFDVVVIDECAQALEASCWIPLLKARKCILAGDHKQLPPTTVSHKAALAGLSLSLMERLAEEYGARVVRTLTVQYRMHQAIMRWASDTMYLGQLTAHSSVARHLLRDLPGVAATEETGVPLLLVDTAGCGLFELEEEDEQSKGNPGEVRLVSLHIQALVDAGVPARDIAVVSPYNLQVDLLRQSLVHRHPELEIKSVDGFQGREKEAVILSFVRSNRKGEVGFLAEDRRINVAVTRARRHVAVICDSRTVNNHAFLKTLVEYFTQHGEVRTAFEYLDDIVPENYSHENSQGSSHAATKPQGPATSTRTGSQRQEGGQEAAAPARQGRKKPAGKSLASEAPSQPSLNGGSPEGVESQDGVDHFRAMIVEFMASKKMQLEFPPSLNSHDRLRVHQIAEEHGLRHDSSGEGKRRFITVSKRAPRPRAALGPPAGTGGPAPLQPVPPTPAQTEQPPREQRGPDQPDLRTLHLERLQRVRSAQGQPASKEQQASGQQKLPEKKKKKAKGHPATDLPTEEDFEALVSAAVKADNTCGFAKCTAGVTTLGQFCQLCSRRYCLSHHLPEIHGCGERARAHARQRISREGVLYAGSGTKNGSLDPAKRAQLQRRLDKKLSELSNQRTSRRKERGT
UniProt O60725, whole entry, looked up: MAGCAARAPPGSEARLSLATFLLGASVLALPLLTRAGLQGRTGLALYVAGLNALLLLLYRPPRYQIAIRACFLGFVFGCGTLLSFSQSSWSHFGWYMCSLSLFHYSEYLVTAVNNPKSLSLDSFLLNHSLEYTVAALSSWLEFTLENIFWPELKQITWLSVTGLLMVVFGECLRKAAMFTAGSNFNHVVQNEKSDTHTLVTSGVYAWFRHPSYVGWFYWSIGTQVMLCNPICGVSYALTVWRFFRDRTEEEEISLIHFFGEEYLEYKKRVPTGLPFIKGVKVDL
UniProt Q9HBG6: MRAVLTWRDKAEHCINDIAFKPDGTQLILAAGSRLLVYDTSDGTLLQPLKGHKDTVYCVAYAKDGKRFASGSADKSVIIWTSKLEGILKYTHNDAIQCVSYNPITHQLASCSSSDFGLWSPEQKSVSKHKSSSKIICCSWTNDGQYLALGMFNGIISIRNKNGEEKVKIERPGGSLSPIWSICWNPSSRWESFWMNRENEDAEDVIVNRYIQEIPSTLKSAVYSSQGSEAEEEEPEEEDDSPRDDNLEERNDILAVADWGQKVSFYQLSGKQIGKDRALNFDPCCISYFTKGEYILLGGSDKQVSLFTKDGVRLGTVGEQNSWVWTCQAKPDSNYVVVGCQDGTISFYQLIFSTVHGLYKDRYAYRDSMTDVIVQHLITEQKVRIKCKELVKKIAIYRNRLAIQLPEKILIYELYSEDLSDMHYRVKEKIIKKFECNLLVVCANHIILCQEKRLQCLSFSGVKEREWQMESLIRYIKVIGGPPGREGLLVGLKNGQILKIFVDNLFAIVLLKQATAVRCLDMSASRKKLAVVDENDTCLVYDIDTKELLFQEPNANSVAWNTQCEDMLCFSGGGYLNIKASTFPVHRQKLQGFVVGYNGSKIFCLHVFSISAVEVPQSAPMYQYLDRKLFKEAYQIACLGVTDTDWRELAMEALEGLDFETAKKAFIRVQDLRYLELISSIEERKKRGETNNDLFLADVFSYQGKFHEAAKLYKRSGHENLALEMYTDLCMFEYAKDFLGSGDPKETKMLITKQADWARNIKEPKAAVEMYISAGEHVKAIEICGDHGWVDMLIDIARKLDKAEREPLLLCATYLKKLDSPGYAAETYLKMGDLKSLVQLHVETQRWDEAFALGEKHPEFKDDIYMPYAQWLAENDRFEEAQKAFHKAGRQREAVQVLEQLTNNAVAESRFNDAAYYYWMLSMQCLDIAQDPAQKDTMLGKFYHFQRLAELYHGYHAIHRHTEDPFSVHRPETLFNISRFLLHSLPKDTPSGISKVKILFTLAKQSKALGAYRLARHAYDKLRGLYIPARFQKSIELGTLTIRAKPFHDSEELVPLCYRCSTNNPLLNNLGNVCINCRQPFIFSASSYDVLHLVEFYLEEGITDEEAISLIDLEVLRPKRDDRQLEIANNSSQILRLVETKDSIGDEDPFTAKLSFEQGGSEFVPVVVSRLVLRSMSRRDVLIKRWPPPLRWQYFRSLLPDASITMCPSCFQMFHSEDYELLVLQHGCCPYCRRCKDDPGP
UniProt Q8N6C5: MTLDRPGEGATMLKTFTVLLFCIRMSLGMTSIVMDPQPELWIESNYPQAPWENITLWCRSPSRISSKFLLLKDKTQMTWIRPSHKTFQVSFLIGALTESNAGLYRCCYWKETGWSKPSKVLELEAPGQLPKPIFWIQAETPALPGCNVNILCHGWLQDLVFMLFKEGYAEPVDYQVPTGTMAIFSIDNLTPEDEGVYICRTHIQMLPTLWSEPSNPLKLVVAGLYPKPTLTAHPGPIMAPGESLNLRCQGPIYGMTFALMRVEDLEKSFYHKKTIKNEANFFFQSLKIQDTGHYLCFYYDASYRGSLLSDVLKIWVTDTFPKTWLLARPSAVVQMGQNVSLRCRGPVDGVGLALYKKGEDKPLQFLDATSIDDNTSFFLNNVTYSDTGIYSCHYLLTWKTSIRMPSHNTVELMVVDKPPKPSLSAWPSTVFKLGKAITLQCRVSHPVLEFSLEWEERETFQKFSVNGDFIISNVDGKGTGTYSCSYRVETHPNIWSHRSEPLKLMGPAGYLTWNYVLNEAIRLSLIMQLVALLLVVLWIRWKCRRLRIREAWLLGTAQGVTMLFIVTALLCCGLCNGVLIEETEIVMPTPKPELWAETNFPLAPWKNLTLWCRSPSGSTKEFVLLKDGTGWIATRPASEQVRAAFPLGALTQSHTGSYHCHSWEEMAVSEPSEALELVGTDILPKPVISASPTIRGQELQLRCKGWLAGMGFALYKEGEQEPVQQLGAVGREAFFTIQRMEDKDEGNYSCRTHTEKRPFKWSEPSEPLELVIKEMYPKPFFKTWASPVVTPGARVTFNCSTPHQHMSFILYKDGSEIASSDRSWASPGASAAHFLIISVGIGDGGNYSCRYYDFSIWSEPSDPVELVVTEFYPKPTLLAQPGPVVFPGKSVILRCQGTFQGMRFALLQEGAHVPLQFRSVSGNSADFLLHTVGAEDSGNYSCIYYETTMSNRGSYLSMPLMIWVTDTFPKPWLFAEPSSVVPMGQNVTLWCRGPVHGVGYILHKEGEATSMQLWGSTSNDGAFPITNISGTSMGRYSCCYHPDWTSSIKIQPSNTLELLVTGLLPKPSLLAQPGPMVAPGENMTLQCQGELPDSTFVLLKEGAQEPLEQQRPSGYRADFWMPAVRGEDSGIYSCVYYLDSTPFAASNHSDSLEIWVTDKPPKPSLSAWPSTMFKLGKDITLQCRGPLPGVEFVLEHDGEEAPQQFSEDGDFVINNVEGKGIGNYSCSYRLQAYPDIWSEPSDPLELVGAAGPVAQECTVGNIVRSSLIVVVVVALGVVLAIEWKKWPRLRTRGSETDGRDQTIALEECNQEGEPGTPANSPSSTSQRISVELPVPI
UniProt Q9NQC8: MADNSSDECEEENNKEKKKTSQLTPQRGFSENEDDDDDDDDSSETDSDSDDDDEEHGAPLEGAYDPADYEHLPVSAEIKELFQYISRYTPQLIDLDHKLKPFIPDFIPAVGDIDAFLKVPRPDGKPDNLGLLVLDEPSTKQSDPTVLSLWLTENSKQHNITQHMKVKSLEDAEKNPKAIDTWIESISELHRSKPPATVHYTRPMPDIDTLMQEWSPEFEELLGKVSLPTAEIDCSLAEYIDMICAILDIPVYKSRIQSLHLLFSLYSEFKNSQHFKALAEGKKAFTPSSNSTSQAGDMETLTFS
UniProt P30939: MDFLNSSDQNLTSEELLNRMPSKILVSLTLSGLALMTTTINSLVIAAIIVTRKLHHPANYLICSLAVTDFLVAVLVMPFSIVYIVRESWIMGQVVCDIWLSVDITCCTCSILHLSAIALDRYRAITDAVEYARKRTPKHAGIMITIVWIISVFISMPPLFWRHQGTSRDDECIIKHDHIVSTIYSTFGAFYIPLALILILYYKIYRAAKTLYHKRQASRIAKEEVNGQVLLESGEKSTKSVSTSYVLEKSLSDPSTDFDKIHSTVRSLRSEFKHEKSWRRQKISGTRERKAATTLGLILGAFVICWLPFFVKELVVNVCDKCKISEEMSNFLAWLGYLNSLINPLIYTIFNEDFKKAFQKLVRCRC

What follows are targets tested with C#Cc1cccc(Nc2ncnc3cc(OCCOC)c(OCCOC)cc23)c1 [erlotinib] (assay: log2 fold change, soluble protein after heating vs DMSO (PISA); higher = thermal stabilisation; K562 lysate, 10 uM; active = over 0.2 and 3.5 SD of the protein, either way, in both replicates (recomputed)).
Method in brief: (§1)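 Pellets of K562 cells were dounce-homogenised in PBS pH 7.4 with 1 mM MgCl2, and the crude extract was held at 1 mg/mL protein for a 30 min treatment with 10 μM compound. Aliquots were heated for 3 min over 48°C-58°C and pooled before NP-40 was added to 0.5% at 4°C. The supernatant from 21,000xg for 90 min was quantified by TMTpro 16plex LC-MS/MS with channel sums equalised. Values are reported from duplicates as log-two fold change in thermal stability relative to solvent controls.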

log2 fold change, inactive:
HYOU1, A0A494C039 0.049
IDS (UniProt P22304) -0.068
IFT57 (UniProt Q9NWB7) 0.141
HVCN1 (UniProt Q96D96) -0.085
HSPA8 (UniProt E9PN89) 0.02
HYKK (UniProt A2RU49) 0.134
IGFBP4 (UniProt P22692) 0.06
IGHV3-72, A0A4W8ZXM2 -0.153
IFIT3 (UniProt O14879) 0.221
IGKV3D-7, A0A0C4DH55 0.376
ING1 (UniProt Q9UK53) 0.005
IGHMBP2 (UniProt P38935) -0.032

The targets below were run with C/C(=N\NC(=O)C1=CC(=CC=C1)S(=O)(=O)N2CCOCC2)/C3=C(C=CC(=C3)Cl)O in the same assay as above.
Method in brief: as §1

log2 fold change, inactive:
ICMT (UniProt O60725) 0.085
IFT122 isoform 5 (UniProt Q9HBG6) 0.206
HYDIN (UniProt Q4G0P3) -0.022
IGSF1 isoform 4 (UniProt Q8N6C5) -0.079
HTD2 (UniProt P86397) -0.085
IFT46 isoform 2 (UniProt Q9NQC8) -0.018
HTR1F (UniProt P30939) 0.28
IDH3A isoform 2 (UniProt P50213) 0.007
IMPDH2 (UniProt H0Y4R1) -0.014

4 neighbouring records from above:
log2 fold change, inactive:
ICMT (UniProt O60725) 0.085
IFT122 isoform 5 (UniProt Q9HBG6) 0.206
HYDIN (UniProt Q4G0P3) -0.022
IGSF1 isoform 4 (UniProt Q8N6C5) -0.079

The targets below were run with C1=CC(=CC=C1C2=NC3=C(N2)C=C(C=C3)C(=O)N)OC4=CC=C(C=C4)Cl in the same assay as above.
Method in brief: as §1

log2 fold change, inactive:
HYOU1, A0A494C039 -0.171
IDS (UniProt P22304) 0.02
IFT57 (UniProt Q9NWB7) -0.136
HVCN1 (UniProt Q96D96) 0.181
HSPA8 (UniProt E9PN89) -0.004
HYKK (UniProt A2RU49) -0.225
IGFBP4 (UniProt P22692) 0.025
IGHV3-72, A0A4W8ZXM2 0.049
IFIT3 (UniProt O14879) -0.005
IGKV3D-7, A0A0C4DH55 -0.03
ING1 (UniProt Q9UK53) 0.07
IGHMBP2 (UniProt P38935) -0.026
